Measured values taken from PubChem BioAssay AID1471 (National Center for Advancing Translational Sciences (NCATS), 2008).
“And” between values parts separate entries of the source, which are not always exact repeats. Equal entries are not always repeated. Screen size: about 230,000 compounds; about 310 (0.13%) were called active. The shares of active, inactive and inconclusive entries below differ from those in the screen. Calls come from the whole dose curve; as a rule, active = well fitted activation curve with a large enough effect; inconclusive = small, poorly fitted or top-dose-only effect; inactive = no such curve, though single readings can be large or run the other way. Potencies of inconclusive entries are doubtful fits and often do not repeat.

Experiment: qHTS Multiplex Assay to Identify Dual Action Probes in a Cell Model of Huntington: Cytoprotection (ATP);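 for cytoprotection (ATP increase): toxic huntingtin expression switched on by the ecdysone agonist tebufenozide; % of control where 0% means no effect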
Settings: PC12 HTT-Q103 induced, ATP luminescence, 40 h; cytoprotection (ATP increase): at 56.4 µM (top of the series)
Description: NIH Chemical Genomics Center [NCGC]
NIH Molecular Libraries Probe Production centers Network [MLPCN]
Assay Submitter (PI): Wei Zheng
Huntington's disease is a neurodegenerative disorder caused by a trinucleotide repeat expansion in Exon 1 of the Huntingtin gene. The CAG trinucleotide encodes glutamine and polyglutamine expansions cause cell death in selective areas of the brain. Huntington polyglutamine repeats have the tendency to form aggregates which are observable in later stages of the disease. The exact nature of the aggregates, whether toxic, protective, or insignificant, is unclear.
A stable PC12 cell line containing a gene fusion of Exon 1 of the Huntingtin gene linked to GFP under the control of the inducible ecdysone promoter were used as the cell-based model of Huntington Disease for high throughput screening. Exon 1 of the Huntingtin gene contained an expansion of 103 polyglutamines (Q103) which, when expressed, caused cell death and distinct, bright GFP aggregates. The amount of cell death and the size and intensity of GFP aggregates increased over time and induction level. The cell death were quantified with a measurement of ATP content in the cells. A maximal 40-50% of cell death was observed when the Huntington gene was induced in this cell line.
We optimized this assay in a homogeneous 1536 well format. A quantitative high throughput screen (qHTS) was conducted on the PC12 cells which were induced to express the toxic fusion construct. Small molecules which prevented cell death were identified by using a luminescent ATP quantification method (Perkin Elmer's ATPlite).
PC12 cells stably containing a construct with an ecdysone inducible promoter expressing GFP fused to the exon 1 of HTTQ103 (Huntington protein which containing a 103 ployglutamine expansion) were used.
NCGC Assay Protocol Summary:
Sequence, Parameter, Description
1, Reagent, 5 uL 1500 cells/well 1536 TC treated White clear bottom plate
2, Compound, 23 nL Tebufenozide inducer (100 nM final) to all columns
3, Compound, 23 nL 40 uM to 0.5 nM Libraries
5, Reagent, 5 ul ATPLite cell death assay reagent
6, Detector, 4 sec integration with a Viewlux Luminescent
Media consisted of phenol red free DMEM + 5% equine serum (Hyclone # SH30072.03 ), 5% supplemented Bovine Calf Serum (Hyclone # SH30074.03 ), 1x pen/strep, no G418
Control columns: 1 = DMSO, 2= 2 uM teb dilns (1:1), 4 = 100 nM Teb inducer. Sample columns received 100 nM Teb.
Potency is the fitted concentration of half-maximal effect.

SMILES | Potency | cytoprotection (ATP increase)
CCCC(=O)Nc1cc(C(=O)N2CCC3(CC2)OCCO3)ccc1S(=O)(=O)c1ccc(C)cc1 | inconclusive: 1 µM [activator, single point] | –
CN1CCc2nc(CO)c(CO)cc2C1 | inconclusive: 0.562 µM [activator, single point] | –
OC(Cn1c2ccccc2c2ccccc21)C[n+]1cccc2ccccc21 (stereo unspecified) | inconclusive: 1.12 µM [activator, single point] | –
C[C@]12CCC3C(C=CC4=CC(=O)CC[C@]43C)C1CC[C@]2(O)CCC(=O)O (stereo partly specified) | inconclusive: 28.2 µM [activator, partial curve, poor fit] | –
C=C(C)[C@]12C[C@@H](C)[C@@]34OC(Cc5ccccc5)(O[C@@H]1[C@@H]3C=C(COC(=O)Cc1cc(I)c(O)c(OC)c1)C[C@]1(O)C(=O)C(C)=C[C@@H]41)O2 | – | inactive: -171%
COC(=O)C12CC3=C[C@H](CC3=O)Cc3ccccc3[C@@H]1CNC2=O (stereo partly specified) | inconclusive: 2.82 µM [activator, partial curve, poor fit] and inconclusive: 794 nM [activator, full curve, poor fit] | –
CC1=C2CCC3C4CCC(=O)[C@@]4(C)CCC3[C@]2(C)CCC1=O (stereo partly specified) | inconclusive: 0.398 µM [activator, partial curve] | –
CN(CC1COc2ccccc2O1)c1nc(-c2cccnc2)nc2ccccc12 (stereo unspecified) | inconclusive: 25.1 µM [activator, single point] | –
Oc1cccc2cccnc12 | inconclusive: 2.51 µM [activator, full curve] | –
CN1[C@@H]2CC[C@H]1CC(O[C@@H](c1ccccc1)c1ccc(Cl)cc1)C2 (stereo partly specified) | inactive | –
C=C1C(=O)O[C@@H]2C[C@@H](C)[C@@H]3C=CC(=O)[C@@]3(C)[C@@H](O)[C@H]12 | inconclusive: 0.794 µM [activator, single point] | –
Cc1ccc(CCN2CC(C(=O)N3CCC4(CC3)OCCO4)CC2=O)cc1 (stereo unspecified) | inconclusive: 0.0891 µM [activator, partial curve, poor fit] | –
COc1ccccc1N1CCN(Cc2cc(C)c(C)cc2O)CC1 | inconclusive: 0.794 µM [activator, full curve, poor fit] | –
C[C@]12CCC3C(CCC4=C(Cl)C(=O)CC[C@@]43C)C1CCC2O (stereo partly specified) | inconclusive: 7.94 µM [activator, partial curve] | –
O=C(Nc1ccccc1)OC1CN=C(N[N+](=O)[O-])NC1 (stereo unspecified) | inconclusive: 5.62 µM [activator, single point] | –
CC(C)C(=O)c1cn(Cc2ccccc2C#N)c2ccccc12 | – | inactive: -13.2% [at 0.074 µM]
C=CCN1C(=O)C2(C(C(=O)OCC)=C(N)Oc3ccccc32)C2=C1CCCC2=O (stereo unspecified) | – | inactive: 2.87%
N#CC1(c2ccccc2)CCN(C2CC(=O)N(c3cccc(F)c3)C2=O)CC1 (stereo unspecified) | inconclusive: 0.794 µM [activator, single point] | –
COc1ccc(C(=O)C(Cc2ccccc2)N(C)C)cc1 (stereo unspecified) | – | inactive: -7.34% [at 0.074 µM]
NC(=NCCC[C@H](N)C(=O)O)N[N+](=O)[O-] | inconclusive: 0.0891 µM [activator, full curve, poor fit] | –
O=[N+]([O-])c1ccc2c3c(cccc13)CC2 | inconclusive: 35.5 µM [activator, single point] | –

SMILES | Potency | cytoprotection (ATP increase)
CC(=O)OC1CN2CCC1CC2 (stereo unspecified) | inconclusive: 0.447 µM [activator, full curve, poor fit] | –
Nc1c(C(=O)NCC2CCCO2)c2nc3ccccc3nc2n1Cc1ccco1 (stereo unspecified) | – | inactive: -22.4% [at 10 µM]
O=C(c1ccco1)N1CCC[C@@]2(CCN(Cc3ccncc3)C2)C1 | inconclusive: 39.8 µM [activator, single point] | –
CC[C@@]1(O)C(=O)OCc2c1cc1n(c2=O)Cc2cc3ccccc3nc2-1 | inactive | –
CN1CCN(c2ccc([N+](=O)[O-])cc2Cl)CC1 | inconclusive: 3.98 µM [activator, single point] | –
CC(C)=CC1C(C(=O)OCc2cccc(Oc3ccccc3)c2)C1(C)C (stereo unspecified) | inconclusive: 0.112 µM [activator, full curve] | –
C[N+](C)(C)CC#CCN1CCCC1=O | inconclusive: 39.8 µM [activator, single point] | –
COc1ccn(C)c(=O)c1C#N | inconclusive: 0.0891 µM [activator, full curve, poor fit] | –
CC(C)[C@@]1(NC(=O)[C@@H]2C[C@H]3c4cccc5[nH]cc(c45)C[C@@H]3N(C)C2)O[C@@]2(O)[C@H]3CCCN3C(=O)[C@H](Cc3ccccc3)N2C1=O | inconclusive: 1.26 µM [activator, single point] | –
Nc1ccc([N+](=O)[O-])cc1N | inconclusive: 2.82 µM [activator, partial curve] | –
CCN(CC)C(=O)N[C@H]1C[C@H]2c3cccc4[nH]cc(c34)C[C@@H]2N(C)C1 | inconclusive: 0.0158 µM [activator, partial curve, poor fit] | –
CCOC(=O)C1CCN(/C=C2/C(=O)NC(=S)N(c3cccc(OC)c3)C2=O)CC1 | inconclusive: 0.282 µM [activator, partial curve, poor fit] | –
C[C@@H]1Cc2cc3c(cc2C(c2ccc(N)cc2)=NN1)OCO3 | – | inactive: 15.1% [at 1.9 µM]
COC(=O)C12CC3=CC(CC3=O)Cc3ccccc3[C@@H]1CNC2=O (stereo partly specified) | inconclusive: 35.5 µM [activator, single point] | –
C/C(=N\NC(=O)c1ccccc1)c1c(O)n(Cc2ccccc2)c(=O)[nH]c1=O | – | inactive: -0.899% [at 10 µM]
O=c1c2ccccc2nc(-c2ccc([N+](=O)[O-])cc2)n1-c1ccccc1 | inconclusive: 1 µM [activator, single point] | –
O=C1C=C2C=C[C@@H]3C[C@@]2(O1)[C@H]1CCCCN31 | inconclusive: 0.355 µM [activator, partial curve, poor fit] | –
C=CCC(O)(C(=O)OC)c1ccccc1 (stereo unspecified) | inconclusive: 35.5 µM [activator, partial curve, poor fit] | –
N#Cc1ccc(CN2CC3(CCNCC3)C2)cc1 | inconclusive: 35.5 µM [activator, single point] | –
c1ccc2c(c1)OC[C@@H](C1=NCCN1)O2 | inconclusive: 1.58 µM [activator, single point] and inconclusive: 12.6 µM [activator, partial curve] | –
CCC1(c2ccccc2)C(=O)NC(=O)N(C(=O)c2ccccc2)C1=O (stereo unspecified) | inconclusive: 1.41 µM [activator, full curve, poor fit] | –

Quoted from the listing.
Entry of Cc1ccc(CCN2CC(C(=O)N3CCC4(CC3)OCCO4)CC2=O)cc1 (stereo unspecified) under Potency: inconclusive: 0.0891 µM [activator, partial curve, poor fit]
Entry of Nc1ccc([N+](=O)[O-])cc1N under Potency: inconclusive: 2.82 µM [activator, partial curve]
Entry of Oc1cccc2cccnc12 under Potency: inconclusive: 2.51 µM [activator, full curve]
Entry of COc1ccn(C)c(=O)c1C#N under Potency: inconclusive: 0.0891 µM [activator, full curve, poor fit]
Entry of c1ccc2c(c1)OC[C@@H](C1=NCCN1)O2 under Potency: inconclusive: 1.58 µM [activator, single point] and inconclusive: 12.6 µM [activator, partial curve]

Carrying on:

SMILES | Potency | cytoprotection (ATP increase)
Cc1nc2cc(C(=O)N3CCC4(CC3)OCCO4)ccc2n1-c1cccc(F)c1 | – | inactive: -18.4%
[CH3][Hg][Cl] | – | inactive: -92.8%
COc1ccc2c3c1O[C@H]1[C@@H](O)C=C[C@H]4C(C2)NCCC341 (stereo partly specified) | inconclusive: 0.562 µM [activator, full curve, poor fit] | –
O=C(c1ccncc1)N1CCC[C@@]2(CCN(Cc3nccs3)C2)C1 | inconclusive: 0.005 µM [activator, full curve, poor fit] | –
Cc1cc(C)c(-n2c(O)c(/C=N/N3CCCCC3c3cccnc3)c(=O)[nH]c2=O)c(C)c1 (stereo unspecified) | inconclusive: 5.62 µM [activator, single point] | –
COc1ccc(C(=O)N2CCCC2=O)cc1 | inconclusive: 0.708 µM [activator, single point] | –
COc1cc(CN2CCCC(C(=O)c3sccc3C)C2)cc(Cl)c1O (stereo unspecified) | – | inactive: 18.5% [at 10 µM]
C[C@]12CC[C@@H]3[C@@H](CCC4=CC(=O)CC[C@@H]43)[C@@H]1CC[C@@H]2OC(=O)CCc1ccccc1 | inconclusive: 0.891 µM [activator, partial curve, poor fit] | –
CCCN1CCC[C@@H]2Cc3cn[nH]c3C[C@H]21 | inconclusive: 5.01 µM [activator, single point] | –
O=C1c2ccccc2C(=O)C1C(=O)C(c1ccccc1)c1ccccc1 | inconclusive: 0.891 µM [activator, full curve, poor fit] | –
CC(=O)[O-].CC(=O)[O-].O.O.O.[Pb+2] | inconclusive: 6.31 µM [activator, full curve, poor fit] and inconclusive: 10 µM [activator, partial curve] | –
C[C@@H]1O[C@H](O[C@@H]2C=C3CC[C@H]4[C@@H](CC[C@]5(C)[C@@H](c6ccc(=O)oc6)CC[C@]45O)[C@@]3(C)CC2)[C@@H](O)[C@H](O)[C@@H]1O | inconclusive: 0.251 µM [activator, full curve, poor fit] | –
COc1ccccc1CN1CCCC2(CCN(C(=O)Oc3ccccc3)CC2)C1 | inconclusive: 25.1 µM [activator, partial curve] | –
Nc1ccncc1 | inconclusive: 0.708 µM [activator, single point] | –
CCC#N | inconclusive: 25.1 µM [activator, single point] | –
COC(=O)/C=C\C(=O)N[C@@H]1CC[C@@]2(O)[C@H]3Cc4ccc(O)c5c4[C@@]2(CCN3CC2CC2)[C@@H]1O5 | – | inconclusive: 112% [activator]
O=C1NC(=O)N(CCc2ccc(F)cc2)C(=O)/C1=C\C=C\c1ccccc1 | – | inactive: -24.7%
O=C1CC[C@]2(O)C3Cc4ccc(O)c5c4C2(CCN3CC2CC2)C1O5 (stereo partly specified) | inconclusive: 0.0089 µM [activator, full curve, poor fit] | –
CC1=CC(=C2C(=O)NC(=S)NC2=O)C=C(C(F)(F)F)N1C | inconclusive: 3.55 µM [activator, single point] | –
